Data taken from publication PMC5742583, “A Functional Analysis on the Interspecies Interaction between Mouse LFA-1 and Human Intercellular Adhesion Molecule-1 at the Cell Level” (Frontiers in Immunology, 2017).
No constants are given. Whether binding was seen depends on the method and setting. Some binding calls cover weakened binding; strength is not graded here.

The chains behind the UniProt entries cited, without tags or fusion partners. Where a name states a change or a piece, a line headed by the entry shows the natural chain unless it says otherwise. Residues count along the entry.
UniProt P24063: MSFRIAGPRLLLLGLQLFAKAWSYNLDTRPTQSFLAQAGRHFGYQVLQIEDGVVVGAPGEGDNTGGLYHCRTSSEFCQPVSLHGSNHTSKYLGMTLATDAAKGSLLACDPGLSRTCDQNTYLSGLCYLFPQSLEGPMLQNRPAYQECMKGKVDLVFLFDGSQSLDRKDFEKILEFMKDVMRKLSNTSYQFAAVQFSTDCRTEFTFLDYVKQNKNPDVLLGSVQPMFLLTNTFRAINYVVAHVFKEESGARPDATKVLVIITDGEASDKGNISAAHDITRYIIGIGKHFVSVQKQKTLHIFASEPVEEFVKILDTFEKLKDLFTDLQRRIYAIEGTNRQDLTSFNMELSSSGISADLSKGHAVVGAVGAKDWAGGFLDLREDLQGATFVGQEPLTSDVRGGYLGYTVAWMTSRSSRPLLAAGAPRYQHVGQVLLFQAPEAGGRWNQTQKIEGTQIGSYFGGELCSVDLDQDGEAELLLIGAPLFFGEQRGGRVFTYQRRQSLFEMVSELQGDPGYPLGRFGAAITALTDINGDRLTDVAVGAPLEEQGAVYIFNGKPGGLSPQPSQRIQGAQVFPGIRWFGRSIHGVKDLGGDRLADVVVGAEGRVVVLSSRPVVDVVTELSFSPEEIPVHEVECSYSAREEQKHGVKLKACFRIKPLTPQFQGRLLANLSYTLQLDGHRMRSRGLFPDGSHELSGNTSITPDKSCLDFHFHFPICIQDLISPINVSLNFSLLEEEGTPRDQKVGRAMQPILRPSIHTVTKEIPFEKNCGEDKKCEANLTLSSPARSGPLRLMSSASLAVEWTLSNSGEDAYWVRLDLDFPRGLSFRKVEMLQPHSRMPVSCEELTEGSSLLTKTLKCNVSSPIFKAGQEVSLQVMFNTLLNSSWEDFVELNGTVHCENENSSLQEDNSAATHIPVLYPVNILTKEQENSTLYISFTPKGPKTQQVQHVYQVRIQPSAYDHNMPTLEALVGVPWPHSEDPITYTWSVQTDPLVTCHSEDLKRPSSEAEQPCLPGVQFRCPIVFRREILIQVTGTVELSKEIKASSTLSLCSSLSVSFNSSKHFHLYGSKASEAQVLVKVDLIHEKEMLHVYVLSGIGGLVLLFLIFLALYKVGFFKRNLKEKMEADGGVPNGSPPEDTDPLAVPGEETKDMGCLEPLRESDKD
UniProt P11835: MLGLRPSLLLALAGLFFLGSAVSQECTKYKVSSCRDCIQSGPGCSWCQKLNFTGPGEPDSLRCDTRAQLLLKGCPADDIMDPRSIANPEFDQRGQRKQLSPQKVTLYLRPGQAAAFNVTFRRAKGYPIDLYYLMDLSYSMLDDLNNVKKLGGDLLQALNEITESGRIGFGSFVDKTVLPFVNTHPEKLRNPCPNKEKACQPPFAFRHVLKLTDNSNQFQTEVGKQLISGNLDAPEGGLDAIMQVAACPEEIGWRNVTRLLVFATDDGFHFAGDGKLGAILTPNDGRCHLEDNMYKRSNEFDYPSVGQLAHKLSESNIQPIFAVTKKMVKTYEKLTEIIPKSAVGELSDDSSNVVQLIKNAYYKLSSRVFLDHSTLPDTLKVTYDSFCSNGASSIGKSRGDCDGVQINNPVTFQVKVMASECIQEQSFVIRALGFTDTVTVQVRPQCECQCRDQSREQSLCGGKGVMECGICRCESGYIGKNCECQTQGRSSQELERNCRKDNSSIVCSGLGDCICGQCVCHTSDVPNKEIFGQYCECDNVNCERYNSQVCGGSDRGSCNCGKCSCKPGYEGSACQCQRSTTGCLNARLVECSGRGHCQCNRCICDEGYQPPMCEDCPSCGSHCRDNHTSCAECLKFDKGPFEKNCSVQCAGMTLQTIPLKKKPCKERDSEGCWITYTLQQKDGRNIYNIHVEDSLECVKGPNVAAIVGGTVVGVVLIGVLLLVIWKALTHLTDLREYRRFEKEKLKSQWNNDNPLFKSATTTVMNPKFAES
UniProt P05362, residues 28-480: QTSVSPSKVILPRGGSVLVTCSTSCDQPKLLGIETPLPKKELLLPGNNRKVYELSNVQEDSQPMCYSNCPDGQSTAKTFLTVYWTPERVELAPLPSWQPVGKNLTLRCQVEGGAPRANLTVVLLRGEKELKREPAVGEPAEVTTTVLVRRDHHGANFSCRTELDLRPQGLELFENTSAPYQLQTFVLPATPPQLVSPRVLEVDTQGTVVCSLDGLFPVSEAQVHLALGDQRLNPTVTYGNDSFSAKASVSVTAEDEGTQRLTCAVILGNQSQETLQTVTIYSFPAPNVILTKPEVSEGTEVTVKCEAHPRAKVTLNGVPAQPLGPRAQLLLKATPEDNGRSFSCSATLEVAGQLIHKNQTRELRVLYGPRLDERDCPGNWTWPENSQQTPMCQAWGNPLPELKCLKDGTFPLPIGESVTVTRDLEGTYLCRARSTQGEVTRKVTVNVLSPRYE
UniProt P13597, residues 28-485: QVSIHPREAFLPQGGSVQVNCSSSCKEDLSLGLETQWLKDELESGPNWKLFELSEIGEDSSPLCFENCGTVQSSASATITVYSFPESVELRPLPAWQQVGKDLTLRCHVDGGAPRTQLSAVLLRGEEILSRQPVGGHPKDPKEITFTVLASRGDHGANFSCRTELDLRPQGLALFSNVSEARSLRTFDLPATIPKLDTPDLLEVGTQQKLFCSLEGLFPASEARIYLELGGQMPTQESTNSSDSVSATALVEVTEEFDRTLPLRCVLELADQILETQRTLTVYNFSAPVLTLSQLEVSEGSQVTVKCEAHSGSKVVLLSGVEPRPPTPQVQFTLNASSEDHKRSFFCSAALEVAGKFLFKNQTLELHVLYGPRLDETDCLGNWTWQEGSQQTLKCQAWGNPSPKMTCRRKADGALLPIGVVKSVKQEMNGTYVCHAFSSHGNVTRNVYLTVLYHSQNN

Molecular target: mouse LFA-1 (CD11a/CD18) on mouse cells (mouse (endogenous in EL4)) (UniProt P24063+P11835)
Test: flow cytometry on cells; EL4 cells incubated with the Fc chimeras at 4°C for 45 min, washed with FACS buffer, detected with PE-conjugated goat anti-human IgG (Fcγ fragment specific); as control cells were pretreated with an antibody against mouse CD11a; only the binder purified

Row | binding | Substance
1 | binds | human Fc chimera containing the five extracellular domains of ICAM-1 (human D1D5Fc) (from UniProt P05362 28-480) (Fc fusion)
2 | binds | mouse Fc chimera containing the five extracellular domains of ICAM-1 (mouse D1D5Fc) (from UniProt P13597 28-485) (Fc fusion)
